Reference: patent US20220220533A1, “METHOD OF DIAGNOSING AND MONITORING SUBSTANCE ADDICTION OR BEHAVIORAL ADDICTION USING C-KIT BIOMARKER” (Wuhan University, priority 2019, published 2022)

Tested on: c-Kit mRNA
Conditions: morphine 5-25 mg/kg s.c. for 6 days, compared with non-addicted rats, p<0.05

How did the “expression level of c-Kit mRNA in peripheral plasma (exosomes)” value turn out when `CN1CC[C@]23c4c5ccc(O)c4O[C@H]2[C@@H](O)C=C[C@H]3[C@H]1C5` [morphine] was run?
Its value is “significantly increased”.
